“And” between values parts separate entries of the source, which are not always exact repeats. Equal entries are not always repeated. This is one part of the list. This data set is noisy: repeats of one test often differ as much as different tests do.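 The cells were human embryonic kidney cells carrying a Renilla luciferase gene, driven by the HSV-TK promoter, on a plasmid put in briefly by transfection. This is the first-round screen of about ten thousand compounds, looking for ones that raise reporter output.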
Test system: HEK 293FT
Assay: log relative Renilla luciferase luminescence (reporter expression vs reference, reference not stated) (log (base not stated)); higher = higher recombinant reporter expression
Settings: 10 µM; time after transfection 48 h

| SMILES | log |
| --- | --- |
| COC(=O)C1=C(C)NC(C)=C(C(=O)OC(C)C)C1c1cccc2nonc12 (centres undefined) | -0.126 |
| Cc1ccc(NC(=O)c2ccc(CN3CCN(C)CC3)cc2)cc1Nc1nccc(-c2cccnc2)n1 | -0.0539 |
| Clc1ccccc1CN1CCc2sccc2C1 | -0.196 |
| CO[C@H]1O[C@@H]2O[C@@]3(C)CC[C@H]4[C@H](C)CC[C@@H]([C@H]1C)[C@@]24OO3 | -0.069 |
| Nc1[nH]c(=O)ncc1F | 0.0815 |
| CC(C(=O)O)c1ccc(-c2ccccc2)c(F)c1 (centres undefined) [Flurbiprofen] | 0.0989 |
| CC(=O)[C@H]1CC[C@H]2[C@@H]3CCC4=CC(=O)CC[C@]4(C)[C@H]3CC[C@]12C | 0.159 |
| OCCN1CCN(CCCN2c3ccccc3Sc3ccc(C(F)(F)F)cc32)CC1 | 0.115 |
| COc1ccc(CCN(C)CCCC(C#N)(c2ccc(OC)c(OC)c2)C(C)C)cc1OC (centres undefined) | 0.186 |
| CC[C@H]1OC(=O)[C@H](C)[C@@H](O[C@H]2C[C@@](C)(OC)[C@@H](O)[C@H](C)O2)[C@H](C)[C@@H](O[C@@H]2O[C@H](C)C[C@H](N(C)C)[C@H]2O)[C@](C)(OC)C[C@@H](C)C(=O)[C@H](C)[C@@H](O)[C@]1(C)O | 0.105 |
| CCC(=O)O[C@]1(C(=O)SCF)[C@H](C)C[C@H]2[C@@H]3C[C@H](F)C4=CC(=O)C=C[C@]4(C)[C@@]3(F)[C@@H](O)C[C@@]21C | -0.189 |
| Cc1cccc(C)c1NC(=O)C(C)N (centres undefined) | 0.0104 |
| CC[C@@]1(O)C(=O)OCc2c1cc1n(c2=O)Cc2cc3c(CN(C)C)c(O)ccc3nc2-1 | -0.971 |
| NC[C@H]1CC[C@H](C(=O)Oc2ccc(CCC(=O)O)cc2)CC1 | 0.152 |
| CN1CCN(CCCN2c3ccccc3Sc3ccc(C(F)(F)F)cc32)CC1 | 0.106 |
| C=CC1=C(C(=O)O)N2C(=O)[C@@H](NC(=O)/C(=N\O)c3csc(N)n3)[C@H]2SC1 | 0.0116 |
| Nc1ccc2cn[nH]c2c1 | 0.0903 |
| O=C(O)CCc1nc(-c2ccccc2)c(-c2ccccc2)o1 | -0.236 |
| COc1ccc2cc([C@H](C)C(=O)O)ccc2c1 | 0.0477 |
| CCOC(=O)C1(CCCCCCOc2ccc(Cl)cc2)CO1 (centres undefined) | -1.56 |

| SMILES | log |
| --- | --- |
| NC1CCN(c2cccc(Cl)n2)CC1 | 0.071 |
| O=c1c(O[C@@H]2O[C@H](CO)[C@@H](O)[C@H](O)[C@H]2O)c(-c2ccc(O)c(O)c2)oc2cc(O)cc(O)c12 [Isoquercitrin] | -0.118 |
| CCS(=O)(=O)CCn1c([N+](=O)[O-])cnc1C | 0.0883 |
| O=C(O)C[C@H](O)C[C@H](O)/C=C/c1c(C2CC2)nc2ccccc2c1-c1ccc(F)cc1 | 0.0878 |
| Oc1ccc(/C=C/c2cc(O)cc(O)c2)cc1 | 0.158 |
| COc1cc(C)nc(-n2nc(C)cc2OC)n1 | -0.0122 |
| Cc1ccsc1C(=CCCN1CCC[C@@H](C(=O)O)C1)c1sccc1C | 0.0503 |
| CC(=O)Oc1ccccc1C(=O)Nc1ncc([N+](=O)[O-])s1 | -1.4 |
| COc1ccc(C(=O)NCc2ccc(OCCN(C)C)cc2)cc1OC | -0.315 |
| CC(C)[C@H]1CC[C@H](C(=O)N[C@H](Cc2ccccc2)C(=O)O)CC1 | 0.135 |
| CC(C)NCC(O)COc1ccc(CCOCC2CC2)cc1 (centres undefined) | -0.244 |
| CN(CCOc1ccc(CC2SC(=O)NC2=O)cc1)c1ccccn1 (centres undefined) | -0.153 and -0.0782 |
| Nc1c2c(nc3ccccc13)CCCC2 | 0.0133 |
| CCC(C)n1ncn(-c2ccc(N3CCN(c4ccc(OCC5COC(Cn6cncn6)(c6ccc(Cl)cc6Cl)O5)cc4)CC3)cc2)c1=O (centres undefined) | -0.5 |
| CC(=O)O[C@@]12CO[C@@H]1C[C@H](O)[C@@]1(C)C(=O)[C@H](O)C3=C(C)[C@@H](OC(=O)[C@H](O)[C@@H](NC(=O)OC(C)(C)C)c4ccccc4)C[C@@](O)([C@@H](OC(=O)c4ccccc4)[C@H]21)C3(C)C | 0.0755 |
| C[C@H](N[C@@H](CCc1ccccc1)C(=O)O)C(=O)N1CCC[C@H]1C(=O)O | -0.529 |
| OC[C@H]1O[C@@H](n2cnc3c(N[C@H]4CCC[C@@H]4O)ncnc32)[C@@H](O)C1O (stereo partly drawn) [Adenosine, N-(2-hydroxycyclopentyl)-, (1S-trans)- [CAS]] | 0.0941 |
| O=c1[nH]c(=O)n(C2CCCO2)cc1F (centres undefined) | -0.196 |
| COc1ccc2c(c1)c(CC(=O)O)c(C)n2C(=O)c1ccc(Cl)cc1 [Indomethacin] | -0.135 |

Among those listed so far, 3 contain an NH in an aromatic ring.

| SMILES | log |
| --- | --- |
| Nc1[nH]c(=O)ncc1F | 0.0815 |
| Nc1ccc2cn[nH]c2c1 | 0.0903 |
| O=c1[nH]c(=O)n(C2CCCO2)cc1F (centres undefined) | -0.196 |

From the supplement of paper PMC7024190
